Assay results: PubChem BioAssay AID504444 (National Center for Advancing Translational Sciences (NCATS), 2011)
Values joined by “and” are separate entries in the source; they are usually repeats but may differ in a detail not shown here. Identical values can stand only once. Hit rate of the full screen: of about 360,000 compounds, about 7,500 (2.1%) were called active. The inconclusive results got no clear call from the source; some entries with a clear call stand among them for comparison. Calls follow the shape of the dose curve; as a rule, active = well fitted inhibition curve with a large enough effect; inconclusive = small, poorly fitted or top-dose-only effect, or effect the other way; inactive = flat fitted curve, though single readings scatter. Potencies beside an inconclusive call are fits to weak or partial responses and may not hold up.

Test: Nrf2 qHTS screen for inhibitors; also: nearly all actives have a fitted effect of over 60% in size
Conditions: A549 ARE-Fluc reporter, luciferase luminescence, 18-24 h; series mostly up to 46 µM
Summary of the method: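 In this cell-based qHTS, ARE-driven firefly luciferase in A549 cells reports Nrf2 activity; the luminescent signal after BugLite lysis is the measured value, with a prior CellTiter-Fluor read for cell health.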
Potency is read from the fitted curve at half-maximal effect.

SMILES	Potency
Cc1ccc2c(c1)c1cccc3c1n2CCN3CCC(N)=O	inconclusive: 2.59 µM [activator, full curve]
CC1(C)CC2CC(C)(CN2C(=S)NC(=O)c2ccccc2Cl)C1 (stereo unspecified)	inconclusive: 32.6 µM [falling, partial curve, poor fit]
O=C(NNc1nc2ccccc2s1)Nc1ccccc1	inconclusive: 7.31 µM [activator, partial curve]
OCCC1CN(Cc2cnc(-c3ccc(Cl)cc3)nc2)CCN1C1CCCC1 (stereo unspecified)	inconclusive: 20.6 µM [falling, partial curve, poor fit]
COc1ccc(C(=O)Cn2nnc(-c3ccccc3NC(=O)C(F)(F)F)n2)cc1	inconclusive: 9.2 µM [falling, partial curve, poor fit]
CCCSc1ncnc2[nH]ncc12	inactive
CCOC(=O)N1CCN(C(=O)CCCCn2c(=S)[nH]c3ccsc3c2=O)CC1	inconclusive: 16.4 µM [falling, partial curve, poor fit]
O=C(c1ccc2c(c1)N(Cc1ccc(F)cc1)C(=O)c1ccccc1S2(=O)=O)N1CCCCC1	inconclusive: 0.206 µM [falling, partial curve, poor fit]
Cc1noc(/C=C/c2ccco2)c1S(=O)(=O)N1CCC(C(=O)N(C)Cc2ccccc2)CC1	inactive
CCOc1ccc(S(=O)(=O)N2CCN(C(=O)Cc3ccc(S(=O)(=O)N4CCOCC4)s3)CC2)cc1	inconclusive: 18.4 µM [falling, single point]
CCC1=C/C(=C/c2sc3ccccc3[n+]2CC)CC(C)(C)C1	inactive
COc1cc(NC(=O)CSc2c3c(nc4ccccc24)CCC3)cc(OC)c1OC	inactive and inconclusive: 7.31 µM [activator, partial curve]
Cc1c(C(=O)NCc2cccnc2)sc2nc(-c3ccc(F)cc3)cn12	inconclusive: 18.4 µM [falling, single point]
Cc1ccc2c(c1)oc(=O)n2CC(=O)c1ccccc1	inconclusive: 0.259 µM [falling, partial curve, poor fit]
COc1ccc(S(=O)(=O)NCCc2ccccc2)c2cccnc12	inconclusive: 14.6 µM [falling, partial curve, poor fit]
CCCCC(=O)Nc1nc2ccc(C(=O)OC)cc2s1	inconclusive: 2.06 µM [activator, full curve]
CN1/C(=C\C(=O)c2cncc(Br)c2)C(C)(C)c2ccccc21	active: 23.1 µM
O=C1CSC(=NC2CCCCC2)N1	inconclusive: 29.1 µM [falling, partial curve, poor fit]
CCCOc1ccc(NC(=O)c2c(-c3ccccc3)noc2C)cc1	inactive
Cc1ccc(SCc2nc3ccccc3n2CC(=O)Nc2c(C)cccc2C)cc1	inconclusive: 29.1 µM [falling, single point]
CC1CCN(Cc2nc(-c3ccccc3)no2)CC1	inconclusive: 8.2 µM [activator, partial curve]
CCN(CC)S(=O)(=O)c1ccc(C(=O)NCCSc2c(-c3ccccc3)[nH]c3ccccc23)cc1	inconclusive: 4.61 µM [falling, single point]

SMILES	Potency
CN1C(=O)/C(=C/c2ccccc2Cl)Sc2ccc(C(=O)N3CCCC3)cc21	inactive
Cc1cc(NC(=O)C(C)SCC(=O)Nc2ccc(SC(F)F)cc2)no1 (stereo unspecified)	inconclusive: 32.6 µM [falling, single point]
COc1ccc(OC)c(NS(=O)(=O)c2ccc(NC(=O)C3COc4ccccc4O3)cc2)c1 (stereo unspecified)	active: 16.4 µM
CCc1c(C)c2cc3c(c(C)c2oc1=O)OCN(CCc1ccccc1F)C3	inconclusive: 29.1 µM [activator, single point]
CCn1cc(C(=O)NCCCN(C)c2ccccc2)c(=O)c2cc(S(=O)(=O)N(C)C)ccc21	inconclusive: 32.6 µM [falling, partial curve, poor fit]
O=C(Nc1sc2c(c1C(=O)NCc1cccnc1)CCCC2)c1ccco1	inactive
CC(C)(C)NS(=O)(=O)c1ccc(NC(=O)C(Sc2ccccc2)c2ccccc2)cc1 (stereo unspecified)	active: 9.2 µM
NC(N)=NC(=S)Nc1ccc(Cl)cc1	inconclusive: 20.6 µM [activator, single point]
Cc1ccc(N=c2c([N+](=O)[O-])nn(-c3ccc4c(c3)OCCO4)n2O)cc1F	inconclusive: 3.26 µM [activator, full curve]
O=C(CNC(=O)c1ccccc1Cl)N/N=C/c1ccc([N+](=O)[O-])s1	inconclusive: 25.9 µM [falling, single point]
CCN(C(=O)CN1C(=S)NC(C)(C)CC1C)c1ccc(C)c(C)c1 (stereo unspecified)	inconclusive: 0.058 µM [falling, full curve, poor fit]
O=C(CSc1nc(-c2cccc(F)c2)[nH]c1-c1ccccc1)Nc1ccc2c(c1)OCO2	inconclusive: 18.4 µM [falling, single point]
O=C(O)c1cc(Cl)c(Cl)cc1C(=O)Nc1cccc2cccnc12	inconclusive: 1.16 µM [activator, partial curve, poor fit]
COC(=O)c1cc2sc(Cl)cc2n1CC(=O)Nc1cccc(SC)c1	inconclusive: 25.9 µM [falling, single point]
CCCc1cc(=O)[nH]c(SCC(=O)Nc2cc(S(=O)(=O)N3CCCCC3)ccc2C)n1	inconclusive: 23.1 µM [falling, partial curve]
O=C(CSc1ccc(-c2ccccn2)nn1)Nc1ccccc1	inconclusive: 7.31 µM [falling, partial curve]
Cc1ccc(Nc2ccc(C(N)=O)cc2[N+](=O)[O-])cc1C	inconclusive: 20.6 µM [falling, single point]
Cc1nn(-c2ccccc2)c2nc(C(Cl)(Cl)Cl)[nH]c(=O)c12	inconclusive: 29.1 µM [falling, single point]
O=C(C1=C(O)C(=O)N(CC2CCCO2)C1c1ccc(Cl)cc1Cl)c1ccco1 (stereo unspecified)	inactive
O=C(Nc1cccc(S(=O)(=O)N2CCCCC2)c1)C1CCCC1	inconclusive: 23.1 µM [falling, single point]
CC(C)(C)CC(=O)Nc1nnc(-c2cccs2)s1	inconclusive: 25.9 µM [activator, single point]
C=CCN1C=CC(=O)[C@@H](OC(=O)Nc2ccc(Br)cc2)[C@H]1c1ccccc1Br	inconclusive: 29.1 µM [falling, single point]

SMILES	Potency
Cc1cc(C(=O)CSc2nncs2)c(C)n1-c1c(C)n(C)n(-c2ccccc2)c1=O	inactive
O=C(CSc1ccccc1Cl)N1CCC(c2nc3ccccc3s2)CC1	inconclusive: 10.3 µM [falling, partial curve, poor fit]
COc1cc(C2CC(c3ccccc3)=NN2c2ccccc2)ccc1OCC(=O)O (stereo unspecified)	inconclusive: 16.4 µM [activator, partial curve]
CCOc1cc(/C=C2\CCCc3c2nc2ccccc2c3C(=O)O)ccc1OC	inactive
CCCC(=O)Nc1ccc2nn(-c3ccc(OC)cc3)nc2c1	inconclusive: 1.16 µM [activator, full curve]
O=C(Nc1cnc2ccccc2c1)N1CCOCC1	inconclusive: 20.6 µM [activator, partial curve]
CCCCc1nc2cc(C(=O)N3CCCC3)ccc2o1	inactive
COc1cc([N+](=O)[O-])ccc1NC(=S)NNC(=O)CCC(=O)Nc1ccccc1Cl	inactive
Clc1ccc(C[n+]2csc3ccccc32)cc1	inactive
Cc1cc(-c2c(C)[nH]n(-c3ccccc3)c2=O)n[nH]1	inconclusive: 29.1 µM [activator, single point]
N/C(=N\NS(=O)(=O)c1ccc(Cl)cc1)c1ccccn1	inconclusive: 29.1 µM [falling, single point]
O=C(COc1ccccc1Cl)Nc1ccccc1C(=O)N1CCCCC1	inconclusive: 13 µM [activator, partial curve]
O=C(Nc1ccc(Cl)cn1)c1ccccc1[N+](=O)[O-]	inconclusive: 11.6 µM [activator, partial curve]
Clc1ccc(-c2cnc3ccccc3n2)cc1	inconclusive: 14.6 µM [activator, partial curve]
COc1ccc(C2/C=C\CN(C(=O)c3ccc(C)cc3)CC(=O)N2Cc2ccc(F)cc2)cc1 (stereo unspecified)	inconclusive: 20.6 µM [falling, single point]
Cc1c(CCC(=O)N[C@@H](CCCNC(N)=O)C(=O)O)c(=O)oc2cc3oc4c(c3cc12)CCCC4	inconclusive: 2.91 µM [falling, full curve]
CC(=O)C1C(=O)c2c(cccc2[N+](=O)[O-])C1=Nc1cccc(Cl)c1 (stereo unspecified)	inconclusive: 20.6 µM [activator, single point]
O=C(C1=C[C@@H](c2ccc(C(F)(F)F)cc2)C[C@@H](OCc2ccc(CO)cc2)O1)N1CCN(Cc2ccc3c(c2)OCO3)CC1	active: 16.4 µM
Cc1nn(CCc2nn[nH]n2)c2nc(-c3ccc(Br)cc3)cc(C(F)(F)F)c12	active: 20.6 µM
O=C(Nc1ccc(Oc2c(F)c(F)c(F)c(F)c2F)cc1)OC1CCN2Cc3ccccc3N=C12 (stereo unspecified)	active: 23.1 µM
Fc1ccc(NC(=S)N2CCc3ccccc32)cc1	inconclusive: 0.461 µM [activator, partial curve]
CNc1ncc(C(=O)c2ccc(Cl)cc2)s1	inconclusive: 2.59 µM [activator, partial curve]
